Results are given in words; binding and its absence hold for the method and conditions named. Binding seen in cells or lysates may run through a third protein. Some results given as binding are weak or reduced against the parent protein; the word gives no strength. Sequences can lack the tags named with a protein.
T1: STAG3 (endogenous, chromatin-bound) (mouse (endogenous in mESCs)) (UniProt O70576)
T1 sequence: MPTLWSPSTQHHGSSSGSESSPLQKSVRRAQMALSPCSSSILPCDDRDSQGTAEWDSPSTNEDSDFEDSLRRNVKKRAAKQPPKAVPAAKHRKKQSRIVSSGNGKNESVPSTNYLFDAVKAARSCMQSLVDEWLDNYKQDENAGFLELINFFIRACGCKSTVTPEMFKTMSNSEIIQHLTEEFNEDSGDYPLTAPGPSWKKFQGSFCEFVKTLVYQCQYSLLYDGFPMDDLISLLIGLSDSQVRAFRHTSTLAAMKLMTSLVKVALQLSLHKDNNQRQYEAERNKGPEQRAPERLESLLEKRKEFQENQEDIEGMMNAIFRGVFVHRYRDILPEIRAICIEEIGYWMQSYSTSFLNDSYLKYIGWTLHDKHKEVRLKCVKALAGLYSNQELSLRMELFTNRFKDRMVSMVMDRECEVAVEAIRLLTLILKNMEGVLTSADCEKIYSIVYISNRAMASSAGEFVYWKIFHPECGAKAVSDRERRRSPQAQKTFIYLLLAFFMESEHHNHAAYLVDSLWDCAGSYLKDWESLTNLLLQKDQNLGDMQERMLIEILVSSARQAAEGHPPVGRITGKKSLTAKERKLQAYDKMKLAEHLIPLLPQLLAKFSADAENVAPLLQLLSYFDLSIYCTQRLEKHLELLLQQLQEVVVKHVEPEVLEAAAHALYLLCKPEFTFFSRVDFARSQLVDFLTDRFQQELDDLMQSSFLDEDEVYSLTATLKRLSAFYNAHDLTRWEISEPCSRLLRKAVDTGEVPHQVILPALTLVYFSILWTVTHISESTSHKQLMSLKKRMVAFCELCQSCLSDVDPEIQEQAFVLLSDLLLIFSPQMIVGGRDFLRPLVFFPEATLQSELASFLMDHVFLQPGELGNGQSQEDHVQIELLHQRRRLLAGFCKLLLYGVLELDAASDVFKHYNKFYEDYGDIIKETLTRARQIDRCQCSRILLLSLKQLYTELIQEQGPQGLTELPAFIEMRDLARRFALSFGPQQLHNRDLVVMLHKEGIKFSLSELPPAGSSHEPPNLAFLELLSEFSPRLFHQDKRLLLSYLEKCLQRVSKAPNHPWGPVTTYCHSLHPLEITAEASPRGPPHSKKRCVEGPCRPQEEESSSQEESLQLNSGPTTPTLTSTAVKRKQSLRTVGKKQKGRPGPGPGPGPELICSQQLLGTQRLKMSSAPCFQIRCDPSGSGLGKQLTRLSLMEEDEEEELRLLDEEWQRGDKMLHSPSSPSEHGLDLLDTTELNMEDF

T2: STAG3 (endogenous, chromatin-bound) (mouse (endogenous in mESCs)), O70576
T2 chain: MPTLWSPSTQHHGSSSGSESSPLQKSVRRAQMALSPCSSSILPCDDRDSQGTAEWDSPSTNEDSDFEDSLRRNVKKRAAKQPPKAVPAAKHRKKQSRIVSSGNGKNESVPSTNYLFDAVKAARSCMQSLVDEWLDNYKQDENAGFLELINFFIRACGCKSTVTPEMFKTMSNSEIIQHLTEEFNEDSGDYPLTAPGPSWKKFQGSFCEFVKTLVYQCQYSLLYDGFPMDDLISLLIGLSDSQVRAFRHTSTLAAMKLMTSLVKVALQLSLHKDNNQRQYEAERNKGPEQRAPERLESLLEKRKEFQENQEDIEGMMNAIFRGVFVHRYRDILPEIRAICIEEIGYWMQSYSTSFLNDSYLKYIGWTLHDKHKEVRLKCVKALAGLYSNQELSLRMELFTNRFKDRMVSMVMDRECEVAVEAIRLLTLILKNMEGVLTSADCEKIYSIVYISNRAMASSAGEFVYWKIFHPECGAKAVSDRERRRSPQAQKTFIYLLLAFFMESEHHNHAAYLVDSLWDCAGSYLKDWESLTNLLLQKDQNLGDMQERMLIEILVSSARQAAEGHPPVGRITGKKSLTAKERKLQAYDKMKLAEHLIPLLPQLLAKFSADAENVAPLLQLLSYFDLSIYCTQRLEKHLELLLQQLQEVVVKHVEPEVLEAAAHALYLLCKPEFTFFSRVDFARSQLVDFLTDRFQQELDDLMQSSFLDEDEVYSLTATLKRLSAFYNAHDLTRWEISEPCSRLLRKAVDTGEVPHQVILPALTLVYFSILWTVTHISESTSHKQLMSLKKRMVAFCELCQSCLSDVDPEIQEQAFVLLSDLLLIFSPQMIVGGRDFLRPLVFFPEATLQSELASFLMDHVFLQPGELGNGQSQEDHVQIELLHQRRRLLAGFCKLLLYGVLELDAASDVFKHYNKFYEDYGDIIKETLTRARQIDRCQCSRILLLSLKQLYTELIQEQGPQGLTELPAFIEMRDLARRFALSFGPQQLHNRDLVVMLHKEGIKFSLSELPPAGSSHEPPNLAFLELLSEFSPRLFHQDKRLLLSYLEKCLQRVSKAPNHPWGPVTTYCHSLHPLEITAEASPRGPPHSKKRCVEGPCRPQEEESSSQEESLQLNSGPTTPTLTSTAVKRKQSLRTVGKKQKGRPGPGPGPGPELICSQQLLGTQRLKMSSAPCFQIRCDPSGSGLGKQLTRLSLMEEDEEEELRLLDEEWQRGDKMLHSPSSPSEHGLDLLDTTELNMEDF


How the values were obtained:
[1] = target: T1, STAG3 (endogenous, chromatin-bound) (mouse (endogenous in mESCs)); test: co-IP
[2] = target: T2, STAG3 (endogenous, chromatin-bound) …; test: co-IP; settings: remark: other sources report otherwise

Row | binding [1] | binding [2] | Binder
1 | binds | – | CTCF (protein, UniProt Q61164 1-736) MEGEAVEAIVEESETFIKGKERKTYQRRREGGQEEDACHLPQNQTDGGEVVQDVNSSVQMVMMEQLDPTLLQMKTEVMEGTVAPEAEAAVDDTQIITLQVVNMEEQPINIGELQLVQVPVPVTVPVATTSVEELQGAYENEVSKEGLAESEPMICHTLPLPEGFQVVKVGANGEVETLEQGELPPQEDSSWQKDPDYQPPAKKTKKTKKSKLRYTEEGKDVDVSVYDFEEEQQEGLLSEVNAEKVVGNMKPPKPTKIKKKGVKKTFQCELCSYTCPRRSNLDRHMKSHTDERPHKCHLCGRAFRTVTLLRNHLNTHTGTRPHKCPDCDMAFVTSGELVRHRRYKHTHEKPFKCSMCDYASVEVSKLKRHIRSHTGERPFQCSLCSYASRDTYKLKRHMRTHSGEKPYECYICHARFTQSGTMKMHILQKHTENVAKFHCPHCDTVIARKSDLGVHLRKQHSYIEQGKKCRYCDAVFHERYALIQHQKSHKNEKRFKCDQCDYACRQERHMIMHKRTHTGEKPYACSHCDKTFRQKQLLDMHFKRYHDPNFVPAAFVCSKCGKTFTRRNTMARHADNCAGPDGVEGENGGETKKSKRGRKRKMRSKKEDSSDSEENAEPDLDDNEEEEEPAVEIEPEPEPQPQPPPPPQPVAPAPPPAKKRRGRPPGRTNQPKQNQPTAIIQVEDQNTGAIENIIVEVKKEPDAEPAEGEEEEAQAATTDAPNGDLTPEMILSMMDR
2 | – | binds | RAD21, Q61550 1-635 (protein) MFYAHFVLSKRGPLAKIWLAAHWDKKLTKAHVFECNLESSVESIISPKVKMALRTSGHLLLGVVRIYHRKAKYLLADCNEAFIKIKMAFRPGVVDLPEENREAAYNAITLPEEFHDFDQPLPDLDDIDVAQQFSLNQSRVEEITMREEVGNISILQENDFGDFGMDDREIMREGSAFEDDDMLVSTSASNLLLEPEQSTSNLNEKMNHLEYEDQYKDDNFGEGNDGGILDDKLISNNDGGIFDDPPALSEAGVMLPEQPAHDDMDEDDNGSLGGPDSPDSVDPVEPMPTMTDQTTLVPNEEEAFALEPIDITVKETKAKRKRKLIVDSVKELDSKTIRAQLSDYSDIVTTLDLAPPTKKLMMWKETGGVEKLFFLPAQPLWNNRLLKLFTRCLTPLVPEDLRKRRKGGEADNLDEFLKEFENPEVPREEQQPQQQQPQPQRDVIDEPIIEEPSRLQDSVMEASRTTIEESAMPPPPPQGVKRKAGQIDPEPSIPPQQVEQMEIPPVELPPEEPPNICQLIPELELLPEKEKEKEKEKEEEEEEEDEDASGGDQDQEERRWNKRTQQMLHGLQRALAKTGAESISLLELCRNTNRKQAAAKFYSFLVLKKQQAIELTQEEPYSDIIATPGPRFHII

Reference: doi:10.1101/2024.05.31.595485
